We go through 27 molecules from PubChem BioAssay AID248 (DTP/NCI, 2004).

Each structure is given as a SMILES string. The list is a part of this screen's results and no random one: it gathers tests that were run many times, whatever their T/C, doses with no T/C, and many T/C values between a quarter and a half above the control. Further doses and runs are listed elsewhere. T/C gives the treated animals as a percentage of the vehicle group. Some entries give survivors of the animals treated and no T/C: the source files T/C as zero there, which appears to mark a toxic dose or a test without result, not a measured value. Some doses without a T/C left all or most animals alive at the check, yet need not have been tolerated: survival well below the control is almost never listed, so the zero probably covers shortened survival too. Survivors were counted at the toxicity check, usually on the fifth day, unless a day is given; later deaths do not show. Schedules are NCI's codes, read here as Q, the interval in days (D) or hours (H), X, the number of doses. Some structures stand for samples that the source files as different forms (salt, stereo form or complex); doses refer to the form tested. Some schedule codes hold Z or #, which are not explained here. Where survival is the endpoint, the PubChem record calls one and a half times the control and up active, and a quarter to a half above the control has no call in these data; cut-offs in other NCI protocols can differ. Some T/C values carry the count of animals alive at the toxicity check (mostly the fifth day); without a count, all were alive then.

The test system of the test is L1210 leukemia ip in BDF1 mice, survival T/C. Briefly: NCI In Vivo Anticancer Drug Screen. Data for tumor model L1210 Leukemia (intraperitoneal) in B6D2F1 (BDF1) mice. Conditions: T/C endpoint: mean survival time, higher T/C = longer survival.
Where [1] appears, read: dose: 400.0 mg/kg/injection, schedule: Q04DX003 (ip), vehicle: saline.
The mark [2] stands for this setting: dose: 100.0 mg/kg/injection, schedule: Q01DX009 (ip), vehicle: saline with Tween-80.
[3] abbreviates: dose: 200.0 mg/kg/injection, schedule: Q01DX009 (ip), vehicle: saline with Tween-80.
Where [4] appears, read: dose: 400.0 mg/kg/injection, schedule: Q01DX009 (ip), vehicle: saline with Tween-80.
[5] abbreviates: dose: 400.0 mg/kg/injection, schedule: Q04DX003 (ip), vehicle: Klucel (hydroxypropylcellulose) (HPC).
Where [6] appears, read: dose: 200.0 mg/kg/injection, schedule: Q01DX001 (ip), vehicle: saline.
[7] abbreviates: dose: 400.0 mg/kg/injection, schedule: Q01DX001 (ip), vehicle: saline.
Where [8] appears, read: dose: 400.0 mg/kg/injection, schedule: Q01DX001 (ip), vehicle: Klucel (hydroxypropylcellulose) (HPC).
[9] abbreviates: dose: 200.0 mg/kg/injection, schedule: Q04DX002 (ip), vehicle: saline.
The mark [10] stands for this setting: dose: 200.0 mg/kg/injection, schedule: Q04DX003 (ip), vehicle: saline with Tween-80.
Setting [11] is: dose: 400.0 mg/kg/injection, schedule: Q04DX003 (ip), vehicle: saline with Tween-80.
The mark [12] stands for this setting: dose: 400.0 mg/kg/injection, schedule: Q01DX009 (ip), vehicle: saline.

Take `CCCCCCCCCCCC[N+](C)(C)C(C)Cc1ccccc1` (stereo unspecified): the survivor count (dose: 40.0 mg/kg/injection, schedule: Q01DX001 (ip), vehicle: saline) is given as 2 of 6; the survivor count (dose: 75.0 mg/kg/injection, schedule: Q01DX001 (ip), vehicle: saline) is 0 of 6; the survivor count (dose: 150.0 mg/kg/injection, schedule: Q01DX001 (ip), vehicle: saline) is listed as 0 of 6; the survivor count (dose: 300.0 mg/kg/injection, schedule: Q01DX001 (ip), vehicle: saline) is recorded as 0 of 6.
As for `c1ccc2sc(SSN3CCOCC3)nc2c1`, under setting [1], the survivor count is recorded as 3 of 6.
For the molecule `CCCC(=O)Nc1cc2c3c(c1)CCCN3CCC2`, the survivor count is reported as 2 of 6 under setting [2], 0 of 6 under setting [3] and 0 of 6 under setting [4].
For `c1cc[c]([Sn]([c]2ccccc2)([c]2ccccc2)[n]2cnc3cncnc32)cc1`, under “dose: 20.0 mg/kg/injection, schedule: Q01DX001 (ip), vehicle: other”, the T/C is 125 % of control [4 of 6 alive]. For the same molecule, the survivor count was 1 of 6 (dose: 40.0 mg/kg/injection, schedule: Q01DX001 (ip), vehicle: other); 0 of 6 (dose: 80.0 mg/kg/injection, schedule: Q01DX001 (ip), vehicle: other); 0 of 6 (dose: 100.0 mg/kg/injection, schedule: Q01DX001 (ip), vehicle: other); 0 of 6 (dose: 200.0 mg/kg/injection, schedule: Q01DX001 (ip), vehicle: other); 1 of 6 (dose: 400.0 mg/kg/injection, schedule: Q01DX001 (ip), vehicle: other).
Consider `CCOC(=O)C[P+](c1ccc(OC)cc1)(c1ccc(OC)cc1)c1ccc(OC)cc1`, for which the survivor count (dose: 15.0 mg/kg/injection, schedule: Q01DX001 (ip), vehicle: carboxymethylcellulose (CMC)) was 6 of 6 and the survivor count (dose: 60.0 mg/kg/injection, schedule: Q01DX001 (ip), vehicle: carboxymethylcellulose (CMC)) is reported as 2 of 6.
With `O=C(CC(=O)c1ccccc1)c1ccccc1.[Tl]`, the survivor count was 0 of 6 (dose: 100.0 mg/kg/injection, schedule: Q04DX003 (ip), vehicle: Klucel (hydroxypropylcellulose) (HPC)); 0 of 6 (dose: 200.0 mg/kg/injection, schedule: Q04DX003 (ip), vehicle: Klucel (hydroxypropylcellulose) (HPC)); 0 of 6 under setting [5].
Consider `COC(=O)C1C(O)CCC2CN3CCc4c([nH]c5ccccc45)C3CC21` (stereo unspecified), for which the survivor count was 1 of 4 under setting [6]; 0 of 6 (dose: 300.0 mg/kg/injection, schedule: Q01DX Z (ip), vehicle: carboxymethylcellulose (CMC)); 0 of 4 under setting [7].
With `NC(=O)c1nnc(-c2ccccn2)[nH]c1=O`, the survivor count is listed as 3 of 3 (dose: 200.0 mg/kg/injection, schedule: Q01DX001 (ip), vehicle: Klucel (hydroxypropylcellulose) (HPC)) and 0 of 3 under setting [8].
In the case of `C/C=C/C(=O)Nc1cccc(C(F)(F)F)c1`, the survivor count reads like this: (dose: 200.0 mg/kg/injection, schedule: Q01DX009 (ip), vehicle: other) 6 of 6; (dose: 400.0 mg/kg/injection, schedule: Q01DX009 (ip), vehicle: other) 4 of 6.
For the molecule `CC(C)=CC(=O)OCC[N+](C)(C)C`, the survivor count runs as follows: (dose: 25.0 mg/kg/injection, schedule: Q01DX009 (ip), vehicle: saline) 6 of 6; (dose: 50.0 mg/kg/injection, schedule: Q01DX009 (ip), vehicle: saline) 0 of 6.
Consider `CNc1ncnc2c1ccn2C1OC(CO)C(O)C1O` (stereo unspecified), for which the survivor count runs as follows: (dose: 100.0 mg/kg/injection, schedule: Q01DX001 (ip), vehicle: carboxymethylcellulose (CMC)) 1 of 4; (dose: 200.0 mg/kg/injection, schedule: Q01DX001 (ip), vehicle: carboxymethylcellulose (CMC)) 0 of 4; (dose: 400.0 mg/kg/injection, schedule: Q01DX001 (ip), vehicle: carboxymethylcellulose (CMC)) 1 of 4.
For `CCc1nc2ccc(N=Cc3ccc(N(CCCl)CCCl)c(OC)c3)cc2[nH]1`, the survivor count by setting is: (dose: 100.0 mg/kg/injection, schedule: Q04DX002 (ip), vehicle: saline) 0 of 3; under setting [9], 0 of 3; (dose: 400.0 mg/kg/injection, schedule: Q04DX002 (ip), vehicle: saline) 0 of 3.
In the case of `C(CC1CCNCC1)CC1CCNCC1`, the survivor count is given as 0 of 6 (dose: 100.0 mg/kg/injection, schedule: Q01DX Z (ip), vehicle: saline); 0 of 3 (dose: 100.0 mg/kg/injection, schedule: Q04DX003 (ip), vehicle: saline with Tween-80); 0 of 3 under setting [10]; 0 of 6 (dose: 300.0 mg/kg/injection, schedule: Q01DX Z (ip), vehicle: saline); 0 of 3 under setting [11].
For the molecule `O=C1OCC2C1C1CCC2C1(Cl)Cl` (stereo unspecified), the survivor count was 2 of 6 (dose: 150.0 mg/kg/injection, schedule: Q01DX001 (ip), vehicle: other) and 0 of 6 (dose: 300.0 mg/kg/injection, schedule: Q01DX001 (ip), vehicle: other).
As to `O=C(NC(=S)NNC(=S)NNc1ccccc1)c1ccccc1`, the T/C (dose: 50.0 mg/kg/injection, schedule: Q04DX002 (ip), vehicle: saline with Tween-80) is 132 % of control. Besides, the survivor count under setting [2] was 2 of 3 and the survivor count (dose: 400.0 mg/kg/injection, schedule: Q04DX002 (ip), vehicle: saline with Tween-80) was 1 of 3.
Take `O=Cc1[nH]c(=O)[nH]c(=O)c1Cc1ccc(Cl)cc1`: the survivor count under setting [11] is on record as 2 of 6.
Consider `CCc1c[n+]([O-])c(C)cc1[N+](=O)[O-]`, for which the survivor count under setting [12] was 0 of 6.
Consider `C(#CCN1CCCC1)CCCN1CCCC1`, for which the survivor count is, setting by setting: under setting [10], 0 of 6; under setting [11], 0 of 6.
Take `CC1CCCN(C)C1` (stereo unspecified): the survivor count is 0 of 6 (dose: 200.0 mg/kg/injection, schedule: Q01DX009 (ip), vehicle: Klucel (hydroxypropylcellulose) (HPC)) and 0 of 6 (dose: 400.0 mg/kg/injection, schedule: Q01DX009 (ip), vehicle: Klucel (hydroxypropylcellulose) (HPC)).
With `Nc1ccccc1C(=O)c1ccccc1`, the survivor count runs as follows: under setting [8], 3 of 6; under setting [4], 6 of 6; under setting [5], 2 of 6.
Take `O=C(O)c1cc(-c2ccc(-c3ccc(-c4cc(C(=O)O)c5cc(Cl)ccc5n4)cc3)cc2)nc2ccc(Cl)cc12`: under setting [2], the survivor count was 6 of 6. Also, the T/C reads like this: under setting [3], 126 % of control; under setting [4], 130 % of control.
`S=C(S)N1CCN(C(=S)S)CC1`: the survivor count is, setting by setting: (dose: 200.0 mg/kg/injection, schedule: Q01DX009 (ip), vehicle: saline) 3 of 6; under setting [12], 0 of 6; under setting [1], 2 of 6.
Regarding `COCCN1CCC(CN2c3ccccc3Sc3ccccc32)C1` (stereo unspecified), the survivor count runs as follows: (dose: 200.0 mg/kg/injection, schedule: Q04DX003 (ip), vehicle: saline) 0 of 6; under setting [1], 0 of 6.
As for `O=C1NCC2C3CCC(O3)C12` (stereo unspecified), the T/C under setting [9] was 132 % of control [2 of 3 alive].
Regarding `O=C(O)c1cc(C(=O)O)c(C(=O)O)cc1C(=O)O` (tested in a mixture with another compound), the survivor count reads like this: under setting [6], 0 of 4; under setting [7], 0 of 4.
Take `Clc1ccc(/C=C/c2nc(Cl)c(-c3ccc(Cl)cc3)c(Cl)n2)cc1`: the survivor count (dose: 75.0 mg/kg/injection, schedule: Q04DX003 (ip), vehicle: Klucel (hydroxypropylcellulose) (HPC)) was 6 of 6.
For the molecule `CCN(CC)Cc1c(C)[nH]c2ccc(N(C)C)cc2c1=O`, the survivor count under setting [1] is listed as 0 of 6.
